Measurements taken from US20150119285.
For at least one entry, the source does not settle the construct or the ends of the probe. Where a protein sequence is shown, tags need not be part of it.

Biological target: T1, C-reactive protein (CRP) (UniProt P02741)
T1 sequence (looked up, limits assumed): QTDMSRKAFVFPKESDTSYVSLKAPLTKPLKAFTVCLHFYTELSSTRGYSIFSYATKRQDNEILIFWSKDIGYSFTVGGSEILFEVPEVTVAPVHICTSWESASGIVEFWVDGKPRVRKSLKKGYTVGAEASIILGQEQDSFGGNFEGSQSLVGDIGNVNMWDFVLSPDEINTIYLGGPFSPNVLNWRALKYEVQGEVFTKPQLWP
Assay: pull-down
Conditions: single-stranded DNA; for Kd: bead pulldown with qPCR, BD buffer, room temperature, assayed with primer flanks

| Sequence | Kd [nM] | binding result |
| --- | --- | --- |
| AATTACAAATTTGGACTGTT [20N AC >200K-2] | 8.35 | – |
| ACCCTACGTACGTTCTCATG [20N RO F20K-1] | – | binds |
| ACCGTGTTGTCTGAGGTCTC [20N RO F20-5] | – | binds |
| AGACCTTTGAAGGCCCCAAG [20N RO F2-1] | – | binds |
| AGTTAGTTTCAGTGGGTCCC [20N RO F20-4] | – | binds |
| ATACTCGCCGCTTTTGAATT [20N AC F2-4] | – | binds |
| ATATAATTTTGCTCTTTATT [20N RO F20K-2] | – | binds |
| ATTGTTCGTTATTGCGTTCG [20N AC F2-2] | – | binds |
| CACATTAGGTGTGATAAGGC [20N RO F27K-6] | 22.5 | – |
| CTCCTTTTGATTTGCGGGTA [20N AC F2K-1] | – | binds |
| CTCTTGGACAACTGGATTAG [20N RO F2K-4] | – | binds |
| CTGTGGTTGGCGCTTGGCAT [20N HAC 100g-1] | – | binds |
| CTTTCTTTCTAGGTGTGTG [20N AC F20-4] | – | binds |
| GCATTGTATCACAGGTACTG [20N AC F200K-1] | – | binds |
| GCCCCCGAAGTTGCTTAGTC [20N RO F27K-4] | – | binds |
| GCCTAAAGCTGGATTCCCTG [OS-Mi-20N-1] | 0.33 | – |
| GCGTTTGGCATCCCTCGGTC [20N HAC 50g-9] | – | binds |
| GGTGTGCGTTATTCTGTGGC [20N RO F2K-1] | – | binds |
| GTGTCGTTCGGTGCATCATG [20N HAC 400g-5] | – | binds |
| GTTTACTGTTTTATTGCGCT [20N HAC 200g-2] | – | binds |
| TATGATAAGGTGATAACATG [20N HAC 200g-3] | – | binds |
| TATGCGGGTGTTTGCGACTG [20N AC F20-2] | – | binds |

| Sequence | Kd [nM] | binding result |
| --- | --- | --- |
| TATGTATGGAATCACAATCC [20N HAC 25g-1] | – | binds |
| TCCTGTTGATGTGTGTTATATG [20N AC >200K-1] | – | binds |
| TCGGTGTGCCACTTTCTCAA [20N RO F200-1] | – | binds |
| TCTACGCGATATTCTCCCCC [20N AC F20K-1] | – | binds |
| TCTGTAATTTATAGTTCCAT [20N RO >27K-1] | 6.26 | – |
| TCTTCCGCCGTACCGTTCCC [20N AC F20K-3] | – | binds |
| TGACTTACATGTACTACTTT [20N AC F200-1] | – | binds |
| TGCTATTCAGGTGGACTATG [20N HAC >400g-1] | – | binds |
| TGGACTTCATTTTAAGTATG [20N HAC 100g-2] | – | binds |
| TGGCAACTTTTGAACGCGTT [20N HAC >400g-4] | – | binds |
| TGTATGGTGGTTCCATCTTC [20N HAC 12.5g-2] | – | binds |
| TGTCAGTTTGATCTGTAATT [20N AC F200-2] | – | binds |
| TTGCATAGTTCGGTTCTATG [20N HAC 12.5g-1] | – | binds |
| TTGCGGGATGAAGTGTCTAA [20N HAC 25g-2] | – | binds |
| TTGGCACAAAGCGGTGTTAC [20N HAC 400g-1] | 5.67 | – |
| TTGGCTTTAACTATATGGAG [20N AC F2K-4] | – | binds |
| TTGGTATTCCTCGCGTTTTT [20N HAC 50g-2] | – | binds |
| TTGGTTTGTAACATTGATGG [20N RO F2-2] | – | binds |
| TTGTCTCTGGGGATCTAAAC [20N AC F200K-2] | – | binds |
| TTTTAGTTGTGCCTGGTGCG [20N RO F200-3] | – | binds |
| TTTTTCGCTGGTGTTCGACC [20N RO >27K-5] | – | binds |
